Measurements taken from PubChem BioAssay AID248 (DTP/NCI, 2004).
The list is a part of this screen's results and no random one: it gathers tests that were run many times, whatever their T/C, doses with no T/C, and many T/C values between a quarter and a half above the control. Other doses and runs of a compound stand elsewhere. T/C: endpoint of the treated group in % of that of the vehicle group. Some entries give survivors of the animals treated and no T/C: the source holds a T/C of zero for them, seemingly a mark for toxic or unscored doses. Some doses without a T/C left all or most animals alive at the check, yet need not have been tolerated: the source hardly ever lists a survival T/C far under the control, and the zero likely stands for such cases as well. Survivors were counted at the toxicity check, usually on the fifth day, unless a day is given; later deaths do not show. Schedules are NCI's codes, read here as Q, the interval in days (D) or hours (H), X, the number of doses. Some doses were run more than once; their values stand side by side, smallest first. Some schedules carry Z or #; the key to these is not given. Where survival is the endpoint, the PubChem record calls one and a half times the control and up active, and a quarter to a half above the control has no call in these data; cut-offs in other NCI protocols can differ. Marks such as (2×) give the number of equal values in this list. Some T/C values carry the count of animals alive at the toxicity check (mostly the fifth day); without a count, all were alive then.

Test system: L1210 leukemia ip in BDF1 mice, survival T/C
Test: NCI In Vivo Anticancer Drug Screen. Data for tumor model L1210 Leukemia (intraperitoneal) in B6D2F1 (BDF1) mice
Conditions: T/C endpoint: mean survival time, higher T/C = longer survival
[1] = dose: 100.0 mg/kg/injection, schedule: Q01DX009 (ip), vehicle: Klucel (hydroxypropylcellulose) (HPC)
[2] = dose: 200.0 mg/kg/injection, schedule: Q01DX009 (ip), vehicle: Klucel (hydroxypropylcellulose) (HPC)
[3] = dose: 400.0 mg/kg/injection, schedule: Q01DX009 (ip), vehicle: Klucel (hydroxypropylcellulose) (HPC)
[4] = dose: 400.0 mg/kg/injection, schedule: Q04DX003 (ip), vehicle: saline with Tween-80
[5] = dose: 100.0 mg/kg/injection, schedule: Q04DX003 (ip), vehicle: saline
[6] = dose: 200.0 mg/kg/injection, schedule: Q01DX009 (ip), vehicle: saline with Tween-80
[7] = dose: 200.0 mg/kg/injection, schedule: Q04DX003 (ip), vehicle: saline with Tween-80

`CCOC(=O)NCC(CCN(C)CC)(c1cccc2ccccc12)C(C)C` (configuration not stated) was tested, and the survivor count (dose: 50.0 mg/kg/injection, schedule: Q01DX009 (ip), vehicle: saline with Tween-80) was 0 of 6, the survivor count [1] was 1 of 6 and the survivor count [2] was 0 of 6. For the same molecule, the survivor count [3] was 0 of 6.
In the case of `Nc1nc(C=O)c(CCc2ccccc2)c(=O)[nH]1`, the survivor count [4] was 1 of 6.
For `CC12CC3CC(Br)(C1)CC(C#N)(C3)C2` (configuration not stated), the survivor count (dose: 25.0 mg/kg/injection, schedule: Q04DX002 (ip), vehicle: Klucel (hydroxypropylcellulose) (HPC)) was 3 of 3, the survivor count (dose: 50.0 mg/kg/injection, schedule: Q04DX002 (ip), vehicle: Klucel (hydroxypropylcellulose) (HPC)) was 3 of 3 and the survivor count (dose: 100.0 mg/kg/injection, schedule: Q04DX002 (ip), vehicle: Klucel (hydroxypropylcellulose) (HPC)) was 0 of 3. For the same molecule, the survivor count (dose: 200.0 mg/kg/injection, schedule: Q04DX002 (ip), vehicle: Klucel (hydroxypropylcellulose) (HPC)) was 0 of 3 and the survivor count (dose: 400.0 mg/kg/injection, schedule: Q04DX002 (ip), vehicle: Klucel (hydroxypropylcellulose) (HPC)) was 0 of 3.
In the case of `O=C(Nc1cccc(C(F)(F)F)c1)Nc1cccc(C(F)(F)F)c1`, the survivor count (dose: 200.0 mg/kg/injection, schedule: Q01DX001 (ip), vehicle: Klucel (hydroxypropylcellulose) (HPC)) was 6 of 6.
`CCOC(=O)[CH2][Sn]([Br])([Br])[CH2]C(=O)OCC` was tested, and the survivor count (dose: 400.0 mg/kg/injection, schedule: Q04DX002 (ip), vehicle: saline with Tween-80) was 2 of 3.
For `Clc1cc2nc3[nH]c4ccccc4c3nc2cc1Cl`, the survivor count (dose: 200.0 mg/kg/injection, schedule: Q01DX001 (ip), vehicle: saline) was 0 of 6 and the survivor count (dose: 400.0 mg/kg/injection, schedule: Q01DX001 (ip), vehicle: saline) was 0 of 6.
`CC/C(=C(\CC)c1ccc(OC)cc1)c1ccc(OC)cc1` was tested, and the survivor count [5] was 6 of 6 and the survivor count (dose: 400.0 mg/kg/injection, schedule: Q04DX003 (ip), vehicle: saline) was 6 of 6.
`C/C(Cc1cc(C)[nH]c(=S)n1)=N\NC(N)=O` was tested, and the survivor count [6] was 3 of 3.
For `O=[N+]([O-])c1cc(Cl)cc2c1nc(NCCO)c1ccccc12`, the survivor count [1] was 6 of 6, the survivor count (dose: 200.0 mg/kg/injection, schedule: Q04DX003 (ip), vehicle: Klucel (hydroxypropylcellulose) (HPC)) was 6 of 6 and the survivor count (dose: 400.0 mg/kg/injection, schedule: Q04DX003 (ip), vehicle: Klucel (hydroxypropylcellulose) (HPC)) was 3 of 6.
In the case of `O=[N+]([O-])C(=C\c1ccccc1)/C(=C(/Br)[N+](=O)[O-])c1ccccc1`, the survivor count (dose: 300.0 mg/kg/injection, schedule: Q01DX001 (ip), vehicle: saline) was 1 of 6.
`Cc1ccc(C2(O)CCN(CCCC(=O)c3ccc(F)cc3)CC2)cc1` was tested, and the survivor count [1] was 0 of 6, the survivor count [2] was 0 of 6 and the survivor count [3] was 0 of 6.
`CC[n+]1cccc2cc(NC(=O)c3ccc(NC(=O)c4ccc(C(=O)Nc5ccc6c(ccc[n+]6CC)c5)cc4)cc3)ccc21` was tested, and the survivor count (dose: 8.9 mg/kg/injection, schedule: Q01DX Z (ip), vehicle: carboxymethylcellulose (CMC)) was 0 of 6, the survivor count (dose: 13.3 mg/kg/injection, schedule: Q01DX Z (ip), vehicle: carboxymethylcellulose (CMC)) was 0 of 6 and the survivor count (dose: 20.0 mg/kg/injection, schedule: Q01DX Z (ip), vehicle: carboxymethylcellulose (CMC)) was 0 of 6. The survivor count (dose: 30.0 mg/kg/injection, schedule: Q01DX Z (ip), vehicle: carboxymethylcellulose (CMC)) was 0 of 6, the survivor count (dose: 60.0 mg/kg/injection, schedule: Q01DX Z (ip), vehicle: carboxymethylcellulose (CMC)) was 1 of 6 and the survivor count (dose: 90.0 mg/kg/injection, schedule: Q01DX Z (ip), vehicle: carboxymethylcellulose (CMC)) was 2 of 6. The survivor count (dose: 150.0 mg/kg/injection, schedule: Q01DX Z (ip), vehicle: carboxymethylcellulose (CMC)) was 1 of 6.
With `C=CCN(CC=C)c1nc(OC)nc(OC)n1` the survivor count [7] was 0 of 6 and the survivor count [4] was 0 of 6.
For `CC/C=C(\C)C1(C(C)C)C(=O)NC(=O)NC1=O`, the survivor count (dose: 150.0 mg/kg/injection, schedule: Q01DX001 (ip), vehicle: carboxymethylcellulose (CMC)) was 0 of 6 and the survivor count (dose: 300.0 mg/kg/injection, schedule: Q01DX001 (ip), vehicle: carboxymethylcellulose (CMC)) was 0 of 6.
With `COc1ccc2c(c1)N(CC(C)CN(C)C)c1ccccc1S2` (configuration not stated) the T/C (dose: 100.0 mg/kg/injection, schedule: Q01DX009 (ip), vehicle: saline with Tween-80) was 133 % of control, the survivor count [6] was 5 of 6 and the survivor count (dose: 400.0 mg/kg/injection, schedule: Q01DX009 (ip), vehicle: saline with Tween-80) was 4 of 6.
With `CCCCC1CN2CCc3cc(OC)c(OC)cc3C2CC1=O` (configuration not stated) the survivor count [3] was 0 of 6.
`C=C(c1cn(C(C)=O)c2ccccc12)c1cn(C(C)=O)c2ccccc12` was tested, and the survivor count [7] was 6 of 6 and the survivor count [4] was 6 of 6.
`O=C1NC(c2cccc3ccccc23)Nc2ccc(Cl)cc21` (configuration not stated) was tested, and the T/C [1] was 125 [5 of 6 alive] and 131 % of control and the T/C (dose: 150.0 mg/kg/injection, schedule: Q01DX009 (ip), vehicle: Klucel (hydroxypropylcellulose) (HPC)) was 125 % of control.
For `CC(=O)c1ccc2c(c1)N(CCCN1CCN(CCO)CC1)c1ccccc1S2`, the survivor count (dose: 6.25 mg/kg/injection, schedule: Q01DX009 (ip), vehicle: Klucel (hydroxypropylcellulose) (HPC)) was 4 of 6, the T/C (dose: 6.25 mg/kg/injection, schedule: Q01DX009 (ip), vehicle: saline) was 125 % of control and the T/C (dose: 12.5 mg/kg/injection, schedule: Q01DX009 (ip), vehicle: saline) was 127 (2×) and 147 % of control. The survivor count (dose: 18.5 mg/kg/injection, schedule: Q01DX009 (ip), vehicle: Klucel (hydroxypropylcellulose) (HPC)) was 4 of 6, the survivor count (dose: 25.0 mg/kg/injection, schedule: Q01DX009 (ip), vehicle: Klucel (hydroxypropylcellulose) (HPC)) was 3 of 6 and the T/C (dose: 25.0 mg/kg/injection, schedule: Q01DX009 (ip), vehicle: saline) was 133 % of control. For the same molecule, the survivor count (dose: 25.0 mg/kg/injection, schedule: Q04DX003 (ip), vehicle: saline) was 2 of 4, the survivor count (dose: 50.0 mg/kg/injection, schedule: Q01DX009 (ip), vehicle: Klucel (hydroxypropylcellulose) (HPC)) was 5 of 6 and the survivor count (dose: 50.0 mg/kg/injection, schedule: Q01DX009 (ip), vehicle: saline) was 1 of 6 and 5 of 6. The survivor count (dose: 50.0 mg/kg/injection, schedule: Q04DX003 (ip), vehicle: saline) was 2 of 4, the survivor count (dose: 100.0 mg/kg/injection, schedule: Q01DX009 (ip), vehicle: saline) was 0 of 6 and the survivor count [5] was 0 of 4. For the same molecule, the survivor count (dose: 200.0 mg/kg/injection, schedule: Q01DX009 (ip), vehicle: saline) was 0 of 6 and the survivor count (dose: 400.0 mg/kg/injection, schedule: Q01DX009 (ip), vehicle: saline) was 0 of 6.
